Results on 24 targets are retold here after the supplement of paper PMC11006884.

Sequences of proteins named here, by UniProt entry; tags and fusion partners are left off. A change or cut given only in a name is not applied to a line headed by its entry.
UniProt P78527, whole entry, looked up: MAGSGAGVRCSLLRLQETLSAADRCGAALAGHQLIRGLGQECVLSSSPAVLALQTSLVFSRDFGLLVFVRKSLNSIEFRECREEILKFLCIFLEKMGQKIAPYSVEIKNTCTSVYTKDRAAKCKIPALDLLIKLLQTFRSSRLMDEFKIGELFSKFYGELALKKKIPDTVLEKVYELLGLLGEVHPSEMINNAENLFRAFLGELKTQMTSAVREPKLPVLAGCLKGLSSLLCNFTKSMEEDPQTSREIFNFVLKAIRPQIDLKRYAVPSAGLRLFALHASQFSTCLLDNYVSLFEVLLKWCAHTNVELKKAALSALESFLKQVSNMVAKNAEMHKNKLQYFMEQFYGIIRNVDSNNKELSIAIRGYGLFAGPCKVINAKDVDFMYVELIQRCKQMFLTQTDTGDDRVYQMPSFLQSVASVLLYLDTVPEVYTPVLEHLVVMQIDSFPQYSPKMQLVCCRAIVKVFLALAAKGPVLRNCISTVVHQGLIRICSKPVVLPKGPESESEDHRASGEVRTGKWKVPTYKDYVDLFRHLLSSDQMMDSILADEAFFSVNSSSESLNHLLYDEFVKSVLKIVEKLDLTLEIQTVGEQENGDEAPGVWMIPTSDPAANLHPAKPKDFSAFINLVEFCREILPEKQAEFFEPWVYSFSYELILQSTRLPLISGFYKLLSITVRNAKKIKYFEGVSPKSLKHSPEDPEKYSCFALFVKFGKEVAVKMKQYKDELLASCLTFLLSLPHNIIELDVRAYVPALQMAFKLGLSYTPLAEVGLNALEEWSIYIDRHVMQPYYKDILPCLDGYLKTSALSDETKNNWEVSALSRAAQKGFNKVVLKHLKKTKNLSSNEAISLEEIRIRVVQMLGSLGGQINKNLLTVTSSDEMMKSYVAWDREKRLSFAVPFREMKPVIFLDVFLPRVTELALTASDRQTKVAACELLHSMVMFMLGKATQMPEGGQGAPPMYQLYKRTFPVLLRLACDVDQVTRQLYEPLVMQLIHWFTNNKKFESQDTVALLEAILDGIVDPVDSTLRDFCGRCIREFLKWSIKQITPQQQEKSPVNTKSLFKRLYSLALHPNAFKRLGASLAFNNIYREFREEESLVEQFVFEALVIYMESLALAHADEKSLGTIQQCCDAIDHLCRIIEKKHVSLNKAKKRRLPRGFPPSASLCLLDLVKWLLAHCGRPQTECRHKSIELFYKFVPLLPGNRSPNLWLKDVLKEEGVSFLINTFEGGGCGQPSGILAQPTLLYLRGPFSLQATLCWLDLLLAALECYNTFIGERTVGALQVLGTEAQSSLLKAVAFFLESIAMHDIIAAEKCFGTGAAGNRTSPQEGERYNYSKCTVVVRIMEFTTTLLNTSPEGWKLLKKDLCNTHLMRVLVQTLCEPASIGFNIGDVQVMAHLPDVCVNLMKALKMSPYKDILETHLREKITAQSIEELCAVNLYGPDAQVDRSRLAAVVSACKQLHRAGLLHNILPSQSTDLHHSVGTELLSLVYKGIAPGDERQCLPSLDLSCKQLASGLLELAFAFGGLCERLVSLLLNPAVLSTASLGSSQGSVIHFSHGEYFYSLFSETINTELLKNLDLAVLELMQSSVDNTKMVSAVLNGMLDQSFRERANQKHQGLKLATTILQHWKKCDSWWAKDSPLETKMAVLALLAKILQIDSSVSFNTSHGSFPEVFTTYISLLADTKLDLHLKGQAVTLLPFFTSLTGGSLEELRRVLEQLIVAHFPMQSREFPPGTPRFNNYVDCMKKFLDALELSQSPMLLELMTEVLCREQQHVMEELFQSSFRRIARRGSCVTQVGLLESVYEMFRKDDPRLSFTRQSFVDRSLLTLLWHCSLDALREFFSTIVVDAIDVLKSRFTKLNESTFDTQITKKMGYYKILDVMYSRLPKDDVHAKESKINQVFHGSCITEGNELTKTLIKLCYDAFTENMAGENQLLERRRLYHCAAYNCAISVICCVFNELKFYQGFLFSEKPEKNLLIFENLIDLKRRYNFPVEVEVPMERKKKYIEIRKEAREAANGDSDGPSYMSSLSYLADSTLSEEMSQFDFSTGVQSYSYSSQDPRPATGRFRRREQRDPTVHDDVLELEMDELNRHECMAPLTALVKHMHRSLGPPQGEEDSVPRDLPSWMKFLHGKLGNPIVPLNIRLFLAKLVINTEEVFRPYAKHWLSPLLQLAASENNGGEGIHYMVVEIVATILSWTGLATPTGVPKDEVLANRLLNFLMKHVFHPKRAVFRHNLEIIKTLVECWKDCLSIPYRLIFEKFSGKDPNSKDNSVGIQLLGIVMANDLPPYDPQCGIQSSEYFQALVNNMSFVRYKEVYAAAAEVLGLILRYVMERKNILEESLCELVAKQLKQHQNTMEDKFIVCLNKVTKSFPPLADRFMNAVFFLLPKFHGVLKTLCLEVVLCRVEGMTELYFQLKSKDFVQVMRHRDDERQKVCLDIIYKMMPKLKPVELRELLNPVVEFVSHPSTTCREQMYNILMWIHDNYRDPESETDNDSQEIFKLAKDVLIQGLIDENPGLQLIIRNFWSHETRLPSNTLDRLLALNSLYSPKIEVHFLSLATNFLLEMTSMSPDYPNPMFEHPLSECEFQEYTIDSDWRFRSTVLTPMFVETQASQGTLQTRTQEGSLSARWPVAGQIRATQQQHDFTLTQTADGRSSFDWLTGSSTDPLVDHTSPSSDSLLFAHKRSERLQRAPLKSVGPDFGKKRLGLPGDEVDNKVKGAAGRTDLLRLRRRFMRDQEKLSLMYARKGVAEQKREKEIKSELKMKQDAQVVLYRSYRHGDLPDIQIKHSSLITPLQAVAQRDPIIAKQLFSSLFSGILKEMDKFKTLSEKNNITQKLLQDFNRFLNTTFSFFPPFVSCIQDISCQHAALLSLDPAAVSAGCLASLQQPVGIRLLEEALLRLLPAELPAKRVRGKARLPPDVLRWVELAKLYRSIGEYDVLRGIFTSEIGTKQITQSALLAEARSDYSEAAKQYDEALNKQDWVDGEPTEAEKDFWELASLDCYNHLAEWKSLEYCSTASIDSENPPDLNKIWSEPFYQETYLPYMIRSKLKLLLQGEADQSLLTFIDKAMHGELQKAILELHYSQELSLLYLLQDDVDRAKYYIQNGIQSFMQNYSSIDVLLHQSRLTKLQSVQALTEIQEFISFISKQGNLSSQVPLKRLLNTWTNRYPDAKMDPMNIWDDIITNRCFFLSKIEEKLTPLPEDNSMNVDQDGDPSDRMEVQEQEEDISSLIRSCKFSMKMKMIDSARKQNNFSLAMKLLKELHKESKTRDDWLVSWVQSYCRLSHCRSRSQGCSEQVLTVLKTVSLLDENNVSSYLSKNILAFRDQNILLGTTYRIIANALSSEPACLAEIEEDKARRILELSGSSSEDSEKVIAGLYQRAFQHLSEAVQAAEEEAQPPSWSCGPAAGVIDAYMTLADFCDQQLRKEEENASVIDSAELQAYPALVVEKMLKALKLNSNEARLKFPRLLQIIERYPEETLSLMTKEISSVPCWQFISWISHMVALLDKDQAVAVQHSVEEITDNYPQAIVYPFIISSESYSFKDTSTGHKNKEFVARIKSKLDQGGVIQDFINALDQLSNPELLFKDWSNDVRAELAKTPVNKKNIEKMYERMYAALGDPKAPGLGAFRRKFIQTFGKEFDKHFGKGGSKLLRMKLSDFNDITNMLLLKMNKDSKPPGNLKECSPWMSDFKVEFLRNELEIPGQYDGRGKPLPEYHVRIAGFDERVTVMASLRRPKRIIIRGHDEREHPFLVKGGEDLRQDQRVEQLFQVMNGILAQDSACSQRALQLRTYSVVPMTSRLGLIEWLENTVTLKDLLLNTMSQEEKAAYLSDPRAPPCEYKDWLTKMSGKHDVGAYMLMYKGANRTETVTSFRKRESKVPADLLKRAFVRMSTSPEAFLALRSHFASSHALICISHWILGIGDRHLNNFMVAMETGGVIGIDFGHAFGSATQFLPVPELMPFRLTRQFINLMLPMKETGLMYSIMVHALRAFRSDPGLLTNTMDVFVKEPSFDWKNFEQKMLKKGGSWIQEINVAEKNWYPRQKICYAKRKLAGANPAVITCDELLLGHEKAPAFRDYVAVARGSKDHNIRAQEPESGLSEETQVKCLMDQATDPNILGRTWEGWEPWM
UniProt P63241: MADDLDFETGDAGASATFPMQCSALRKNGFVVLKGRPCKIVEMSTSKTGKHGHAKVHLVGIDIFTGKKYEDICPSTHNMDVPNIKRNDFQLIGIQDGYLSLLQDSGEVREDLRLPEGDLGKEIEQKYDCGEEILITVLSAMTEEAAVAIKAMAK
UniProt Q02040: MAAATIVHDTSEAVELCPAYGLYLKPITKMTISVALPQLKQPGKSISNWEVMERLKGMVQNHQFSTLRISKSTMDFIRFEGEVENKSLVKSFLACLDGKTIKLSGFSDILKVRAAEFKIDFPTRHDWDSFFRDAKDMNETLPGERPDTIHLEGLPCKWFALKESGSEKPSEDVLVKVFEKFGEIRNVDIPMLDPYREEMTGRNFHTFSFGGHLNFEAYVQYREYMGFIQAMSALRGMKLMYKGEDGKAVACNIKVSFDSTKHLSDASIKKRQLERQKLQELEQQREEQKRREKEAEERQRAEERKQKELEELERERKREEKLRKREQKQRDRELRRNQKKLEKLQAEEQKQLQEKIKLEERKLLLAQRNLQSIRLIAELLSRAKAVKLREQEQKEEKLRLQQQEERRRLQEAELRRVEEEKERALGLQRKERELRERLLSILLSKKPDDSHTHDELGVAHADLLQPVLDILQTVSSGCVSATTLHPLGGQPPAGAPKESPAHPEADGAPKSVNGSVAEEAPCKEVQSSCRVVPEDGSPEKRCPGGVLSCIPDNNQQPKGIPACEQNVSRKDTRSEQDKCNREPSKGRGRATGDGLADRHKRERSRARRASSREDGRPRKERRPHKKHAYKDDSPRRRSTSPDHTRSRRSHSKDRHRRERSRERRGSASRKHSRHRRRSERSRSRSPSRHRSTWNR
UniProt Q01813: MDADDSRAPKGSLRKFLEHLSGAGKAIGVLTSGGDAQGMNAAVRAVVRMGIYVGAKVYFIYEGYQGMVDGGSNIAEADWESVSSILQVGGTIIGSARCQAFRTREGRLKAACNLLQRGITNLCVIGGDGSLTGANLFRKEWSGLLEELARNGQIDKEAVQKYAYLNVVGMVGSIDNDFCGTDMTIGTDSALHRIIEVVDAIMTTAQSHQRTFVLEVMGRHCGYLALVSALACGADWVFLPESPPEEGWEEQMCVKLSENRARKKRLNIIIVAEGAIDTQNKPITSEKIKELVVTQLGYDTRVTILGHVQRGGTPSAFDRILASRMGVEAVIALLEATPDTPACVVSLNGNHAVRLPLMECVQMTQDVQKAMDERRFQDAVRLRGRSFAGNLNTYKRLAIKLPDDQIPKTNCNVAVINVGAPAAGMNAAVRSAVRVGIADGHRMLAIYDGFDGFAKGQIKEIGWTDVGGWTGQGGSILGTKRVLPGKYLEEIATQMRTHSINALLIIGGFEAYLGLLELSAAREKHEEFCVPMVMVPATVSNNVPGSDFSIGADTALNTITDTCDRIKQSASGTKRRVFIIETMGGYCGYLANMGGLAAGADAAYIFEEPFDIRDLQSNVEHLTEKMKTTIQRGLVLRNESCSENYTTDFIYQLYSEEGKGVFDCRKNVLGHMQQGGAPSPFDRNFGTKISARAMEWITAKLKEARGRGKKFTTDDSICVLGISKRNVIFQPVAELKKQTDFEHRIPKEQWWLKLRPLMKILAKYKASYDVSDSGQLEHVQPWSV
UniProt P68104, whole entry, looked up: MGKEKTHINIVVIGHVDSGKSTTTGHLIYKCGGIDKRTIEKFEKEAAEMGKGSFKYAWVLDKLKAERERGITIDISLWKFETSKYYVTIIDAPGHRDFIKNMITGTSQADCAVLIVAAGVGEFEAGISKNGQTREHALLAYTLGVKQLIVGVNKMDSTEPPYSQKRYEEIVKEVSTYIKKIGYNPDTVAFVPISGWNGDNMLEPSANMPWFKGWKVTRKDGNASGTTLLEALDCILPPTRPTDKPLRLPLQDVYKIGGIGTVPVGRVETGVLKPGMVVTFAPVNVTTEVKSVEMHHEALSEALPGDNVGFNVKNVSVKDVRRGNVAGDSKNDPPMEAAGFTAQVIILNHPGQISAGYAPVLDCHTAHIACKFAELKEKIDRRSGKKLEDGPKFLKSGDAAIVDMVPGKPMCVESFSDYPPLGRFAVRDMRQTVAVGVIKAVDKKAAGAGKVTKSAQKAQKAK
UniProt P62330: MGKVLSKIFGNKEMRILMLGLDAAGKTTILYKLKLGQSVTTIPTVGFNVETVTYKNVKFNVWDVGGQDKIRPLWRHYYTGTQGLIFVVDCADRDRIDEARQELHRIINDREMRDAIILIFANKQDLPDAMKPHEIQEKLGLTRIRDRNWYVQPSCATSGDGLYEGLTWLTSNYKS
UniProt P62633: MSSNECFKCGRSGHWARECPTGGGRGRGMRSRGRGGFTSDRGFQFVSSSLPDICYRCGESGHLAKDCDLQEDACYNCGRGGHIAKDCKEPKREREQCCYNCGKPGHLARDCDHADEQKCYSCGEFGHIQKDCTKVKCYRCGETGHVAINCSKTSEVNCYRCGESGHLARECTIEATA

Only a part is listed here, and it is no random draw. The data scatter; read single values as rough.

Compound in the assay: COC(=O)/C=C/c1ccccc1 [methyl cinnamate]
The experiment in a line: log2 ratio of iodoacetamide-alkyne labeling of the cysteine site, DMSO over compound (competition); higher = stronger covalent engagement of the cysteine by the compound, active = 1 or more. The settings on record: 500 µM; treatment time 1 h; system: HEK293T cell lysate. In a few lines:
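HEK293T lysate (2 mg/mL) was treated with DMSO or electrophile (500 µM, 1 h, ambient temperature), then iodoacetamide alkyne (1 h), clicked to sCIP-TMT reagents, pooled, trypsin-digested overnight at 37 °C, streptavidin-enriched and acid-eluted. Peptides were run on Orbitrap Eclipse LC-MS/MS with FAIMS and quantified in FragPipe. The log2 competition ratio per cysteine is mean control-channel over mean compound-channel reporter intensity. Duplicate channels and three replicates were used, and cysteines quantified in only one replicate were excluded.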
Turning to UniProt P78527_C25, the “log2 ratio of iodoacetamide-alkyne labeling” value (shortened to “log2 ratio”) was inactive: 0.166.

As for UniProt P62829_C125, the “log2 ratio” value is inactive: 0.269. The result for H3F3A C111 (UniProt P84243) reads inactive: -0.157; that for UniProt P63241_C129, inactive: -0.477.

As for UniProt P62857_C27, the “log2 ratio” value is inactive: 0.426. The result for CCT2 C395 (UniProt P78371) reads inactive: 0.0823; that for UniProt P62854_C77, inactive: 0.22. The result for UniProt P63241_C73 reads inactive: -0.146; that for UniProt Q02040_C542, inactive: 0.405; that for PFKP C343 (UniProt Q01813), inactive: -0.117. The result for UniProt Q02040_C17 reads inactive: -0.183.

On to EEF1A1 C111 (UniProt P68104), for which the “log2 ratio” value is inactive: -0.0671.

In the case of UniProt P78527_C3347, the “log2 ratio” value was inactive: 0.11.

For UniProt P62330_C90, the “log2 ratio” value was inactive: 0.0849. As for RPS21 C56 (UniProt P63220), the “log2 ratio” value was inactive: 0.615. The result for UniProt P62910_C96 reads inactive: 0.211; that for CDK5 C157 (UniProt Q00535), inactive: -0.108; that for CNBP C77 (UniProt P62633), inactive: 0.0293. The result for HNRNPU C607 (UniProt Q00839) reads inactive: 0.215. As to UniProt Q00341_C948, the “log2 ratio” value is inactive: 0.15. The result for CLTC C1205 (UniProt Q00610) reads inactive: -0.632; that for XPC C224 (UniProt Q01831), inactive: 0.0828. Turning to CLTC C617 (UniProt Q00610), the “log2 ratio” value was inactive: 0.0726. UniProt P63241_C22: the “log2 ratio” value is inactive: 0.0899.
